For assay [1], the target named is T1, MBP-PGL1 (rice (Oryza sativa L. cv Nipponbare)) (UniProt Q0DUR2).
T1 sequence: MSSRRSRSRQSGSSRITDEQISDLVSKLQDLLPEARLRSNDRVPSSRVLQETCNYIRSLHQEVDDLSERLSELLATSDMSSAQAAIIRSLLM
The assay is described as follows: pull-down; amylose resin-bound MBP fusion incubated with an equal amount of GST fusion; binding buffer 20 mM Tris-HCl pH 7.5, 100 mM NaCl, 1 mM EDTA, 1 mM DTT, 0.2% 2-mercaptoethanol, protease inhibitor; 4°C, 2 hours; five washes with 300 mM NaCl, 0.05% Tween-20; immunoblot with anti-GST. Background: A western blot detects proteins with antibodies after separation by electrophoresis.

The target of assay [2] is T2, GST-PGL1 (POSITIVE REGULATOR OF GRAIN LENGTH 1 fused to glutathione S-transferase) (rice (Oryza sativa L. cv Nipponbare)) (UniProt Q0DUR2).
T2 sequence: T1 sequence
Kind of assay: pull-down; glutathione beads bound to GST-PGL1 incubated with equal amounts of Trx-Os12g; immunoblot with anti-His.

The target in assay [3] is MBP-APG (ANTAGONIST OF PGL1 fused to maltose binding protein) (rice (Oryza sativa L. cv Nipponbare)). Kind of assay: pull-down; amylose resin-bound MBP fusion incubated with an equal amount of GST fusion; binding buffer 20 mM Tris-HCl pH 7.5, 100 mM NaCl, 1 mM EDTA, 1 mM DTT, 0.2% 2-mercaptoethanol, protease inhibitor; 4°C, 2 hours; five washes with 300 mM NaCl, 0.05% Tween-20; immunoblot with anti-GST.

Assay [4] deals with C-EYFP alone (C-terminal half of enhanced yellow fluorescent protein). Kind of assay: split reporter; BiFC with halves of EYFP; Agrobacterium co-infiltration with p19 into N. benthamiana leaves, 48 hours, continuous light, 26°C; YFP seen by confocal or fluorescent microscope.
The target in assay [5] is YC-APG (C-terminal half of EYFP fused to APG) (rice (Oryza sativa L. cv Nipponbare)). Described as above.

These are yes or no findings as the source states them, for the method shown. Binding seen in cells or lysates may run through a third protein. For some assays here: A result given as binding can be weak or reduced; the word gives no strength. Where a sequence is shown, tags or fusion partners need not be part of it.

Take “GST-Os04g (Os04g0618600 fused to glutathione S-transferase) (rice (Oryza sativa L. cv Nipponbare))”: in assay [1], the binding entry is recorded as “no binding”.

On to “Trx-Os12g (Os12g0610200 fused to thioredoxin) (rice (Oryza sativa L. cv Nipponbare))”, for which, in assay [2], the binding result was “no binding”.

B1: GST-PGL1 (POSITIVE REGULATOR OF GRAIN LENGTH 1 fused to glutathione S-transferase) (protein, UniProt Q0DUR2 1-92)
chain: T1 sequence
In the case of B1, in assay [3], the binding entry is recorded as “binds”.

B2: YN-PGL1 (N-terminal half of EYFP fused to PGL1) (protein, UniProt Q0DUR2 1-92)
chain: T1 sequence
B2: the binding result in assay [4] is on record as “no binding”; in assay [5], “binds”.

The values above are taken from PMC3283642.
